Data taken from US20240139211A1, “METHODS AND COMPOSITIONS FOR TREATING AMYOTROPHIC LATERAL SCLEROSIS” (Amylyx Pharmaceuticals, Inc., priority 2022, published 2024).
“And” between values parts separate entries of the source, which are not always exact repeats. Equal values may be shown once.

Protein sequences, listed by entry. Tags and fused reporters are not part of them. Lines headed by an entry give the natural chain unless they say otherwise; changes in a name come on top.
UniProt Q9Y6L6: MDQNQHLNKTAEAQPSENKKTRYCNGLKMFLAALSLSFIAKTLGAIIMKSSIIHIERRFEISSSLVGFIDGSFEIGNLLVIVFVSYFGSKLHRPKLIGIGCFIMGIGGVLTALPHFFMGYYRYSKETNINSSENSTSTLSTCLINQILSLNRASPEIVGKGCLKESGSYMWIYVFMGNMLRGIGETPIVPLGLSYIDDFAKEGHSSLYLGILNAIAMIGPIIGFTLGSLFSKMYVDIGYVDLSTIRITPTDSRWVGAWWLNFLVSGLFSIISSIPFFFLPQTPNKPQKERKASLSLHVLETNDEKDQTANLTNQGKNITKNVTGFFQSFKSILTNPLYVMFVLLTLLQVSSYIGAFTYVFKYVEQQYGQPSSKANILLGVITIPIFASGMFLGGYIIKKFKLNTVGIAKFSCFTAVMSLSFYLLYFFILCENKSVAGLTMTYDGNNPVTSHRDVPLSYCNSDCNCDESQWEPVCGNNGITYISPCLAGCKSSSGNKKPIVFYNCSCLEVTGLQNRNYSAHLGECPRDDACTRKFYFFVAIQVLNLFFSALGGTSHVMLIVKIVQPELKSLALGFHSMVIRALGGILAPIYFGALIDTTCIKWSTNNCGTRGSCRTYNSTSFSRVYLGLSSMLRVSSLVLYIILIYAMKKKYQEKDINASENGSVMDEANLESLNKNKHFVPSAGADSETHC
UniProt Q9NPD5: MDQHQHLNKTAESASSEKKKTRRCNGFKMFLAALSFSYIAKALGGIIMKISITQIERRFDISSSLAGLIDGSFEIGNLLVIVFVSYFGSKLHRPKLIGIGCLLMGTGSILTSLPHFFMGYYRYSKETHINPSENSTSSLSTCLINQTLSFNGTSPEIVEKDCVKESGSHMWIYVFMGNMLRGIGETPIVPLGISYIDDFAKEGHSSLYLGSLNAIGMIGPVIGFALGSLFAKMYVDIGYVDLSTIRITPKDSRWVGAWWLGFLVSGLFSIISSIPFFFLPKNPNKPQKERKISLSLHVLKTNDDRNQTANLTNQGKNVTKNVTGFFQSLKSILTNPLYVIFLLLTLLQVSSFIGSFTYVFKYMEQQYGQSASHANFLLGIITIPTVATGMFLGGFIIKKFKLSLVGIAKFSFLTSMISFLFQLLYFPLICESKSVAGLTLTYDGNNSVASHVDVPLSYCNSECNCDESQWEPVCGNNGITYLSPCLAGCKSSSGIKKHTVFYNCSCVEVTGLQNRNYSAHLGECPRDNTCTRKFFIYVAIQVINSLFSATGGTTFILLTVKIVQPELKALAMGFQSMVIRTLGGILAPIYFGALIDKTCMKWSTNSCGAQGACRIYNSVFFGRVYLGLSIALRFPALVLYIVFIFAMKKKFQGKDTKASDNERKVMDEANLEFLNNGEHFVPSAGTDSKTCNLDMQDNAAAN

Assays:
Settings in all cases: no inhibitor
OAT3 = molecular target: T1, OAT3 (Homo sapiens, UniProt Q8TCC7); experiment: OAT3 inhibition, furosemide uptake in transfected HEK cells
T1 sequence (Q8TCC7 1-542): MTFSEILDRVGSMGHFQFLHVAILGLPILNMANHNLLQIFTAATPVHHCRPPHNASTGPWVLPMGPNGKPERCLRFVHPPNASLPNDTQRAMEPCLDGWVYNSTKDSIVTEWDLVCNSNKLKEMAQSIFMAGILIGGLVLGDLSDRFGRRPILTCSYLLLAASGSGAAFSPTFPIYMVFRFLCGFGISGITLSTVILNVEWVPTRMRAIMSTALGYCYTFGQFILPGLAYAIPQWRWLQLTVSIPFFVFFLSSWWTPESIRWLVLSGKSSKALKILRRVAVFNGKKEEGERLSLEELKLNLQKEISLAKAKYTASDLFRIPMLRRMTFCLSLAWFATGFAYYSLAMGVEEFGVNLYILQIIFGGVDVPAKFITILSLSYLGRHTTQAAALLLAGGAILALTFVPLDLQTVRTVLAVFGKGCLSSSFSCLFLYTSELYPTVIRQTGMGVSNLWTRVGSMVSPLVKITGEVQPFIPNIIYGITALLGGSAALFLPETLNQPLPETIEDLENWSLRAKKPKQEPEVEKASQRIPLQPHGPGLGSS

OATP1B1 = OATP1B1 (Homo sapiens, UniProt Q9Y6L6); experiment: OATP1B1 inhibition, atorvastatin uptake in transfected HEK cells
OATP1B3 = OATP1B3 (Homo sapiens, UniProt Q9NPD5); experiment: OATP1B3 inhibition, atorvastatin uptake in transfected HEK cells

Compound | Net Influx Rate of 5 μM Furosemide (OAT3; OAT3) [pmol/mg protein/minute] | Influx rate ratio (OAT3 over vector control) (OAT3) | Influx Rate of 5 μM Furosemide (5 min) (OAT3; OAT3-HEK Cells, Average) [pmol/mg protein/minute] | Influx Rate of 5 μM Furosemide (5 min) (OAT3; OAT3-HEK Cells, replicates) | Influx Rate Ratio of furosemide (OAT3; OAT3 over vector control) | Influx Rate of 5 μM Furosemide (5 min) (OAT3; Vector Control Cells, Average) [pmol/mg protein/minute] | Influx Rate of 5 μM Furosemide (5 min) (OAT3; Vector Control Cells, replicates) | Influx rate ratio (OATP1B1 over vector control) (OATP1B1) | Influx Rate Ratio of atorvastatin (OATP1B1; OATP1B1 over vector control) | Influx rate ratio (OATP1B3 over vector control) (OATP1B3) | Influx Rate Ratio of atorvastatin (OATP1B3; OATP1B3 over vector control)
NS(=O)(=O)c1cc(C(=O)O)c(NCc2ccco2)cc1Cl [furosemide] | 42.5 | 20.1 | 44.8 | 42.2 pmol/mg protein/minute and 47.3 pmol/mg protein/minute | 20.1 | 2.23 | 2.47 pmol/mg protein/minute and 1.98 pmol/mg protein/minute | – | – | – | –
CC(C)c1c(C(=O)Nc2ccccc2)c(-c2ccccc2)c(-c2ccc(F)cc2)n1CC[C@@H](O)C[C@@H](O)CC(=O)O [atorvastatin] | – | – | – | – | – | – | – | 15.1 | 15.1 | 8.23 | 8.23
